Results are given in words; binding and its absence hold for the method and conditions named.
Assays:
TNFR1-Fc [1] = molecular target: TNFR1-Fc (UniProt P19438); assay: cell-free binding study with GpL (luciferase) fusion protein on ELISA plates; direct binding; TNFR1-Fc, TNFR2-Fc or hIgG1 immobilized; SNs of GpL-PGRN or PGRN-GpL expressing HEK293 cells added for 1 h; only the target purified
TNFR2-Fc (Enbrel) [2] = molecular target: TNFR2-Fc (Enbrel) (UniProt P20333); assay: as above
TNFR1-Fc [3] = molecular target: TNFR1-Fc (UniProt P19438); assay: cell-free binding study with GpL (luciferase) fusion protein on ELISA plates; direct binding; TNFR1-Fc, TNFR2-Fc or hIgG1 immobilized; lysates of GpL-PGRN or PGRN-GpL expressing HEK293 cells added for 1 h; only the target purified
TNFR2-Fc (Enbrel) [4] = molecular target: TNFR2-Fc (Enbrel) (UniProt P20333); assay: as above

Sequences of proteins named here, by UniProt entry; tags and fusion partners are left off. Residues count along the entry.
UniProt P19438, residues 30-211: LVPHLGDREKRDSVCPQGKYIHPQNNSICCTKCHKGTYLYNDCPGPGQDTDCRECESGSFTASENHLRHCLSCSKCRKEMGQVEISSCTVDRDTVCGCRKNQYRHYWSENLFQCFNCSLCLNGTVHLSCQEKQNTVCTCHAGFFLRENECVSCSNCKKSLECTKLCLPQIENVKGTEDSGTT
UniProt P20333, residues 23-257: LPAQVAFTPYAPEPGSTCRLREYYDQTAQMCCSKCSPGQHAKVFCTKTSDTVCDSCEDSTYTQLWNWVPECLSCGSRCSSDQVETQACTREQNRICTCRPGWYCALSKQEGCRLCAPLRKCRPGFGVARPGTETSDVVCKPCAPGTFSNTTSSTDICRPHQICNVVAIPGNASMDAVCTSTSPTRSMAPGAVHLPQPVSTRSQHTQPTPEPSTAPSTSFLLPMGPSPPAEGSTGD
UniProt P28799, residues 21-593: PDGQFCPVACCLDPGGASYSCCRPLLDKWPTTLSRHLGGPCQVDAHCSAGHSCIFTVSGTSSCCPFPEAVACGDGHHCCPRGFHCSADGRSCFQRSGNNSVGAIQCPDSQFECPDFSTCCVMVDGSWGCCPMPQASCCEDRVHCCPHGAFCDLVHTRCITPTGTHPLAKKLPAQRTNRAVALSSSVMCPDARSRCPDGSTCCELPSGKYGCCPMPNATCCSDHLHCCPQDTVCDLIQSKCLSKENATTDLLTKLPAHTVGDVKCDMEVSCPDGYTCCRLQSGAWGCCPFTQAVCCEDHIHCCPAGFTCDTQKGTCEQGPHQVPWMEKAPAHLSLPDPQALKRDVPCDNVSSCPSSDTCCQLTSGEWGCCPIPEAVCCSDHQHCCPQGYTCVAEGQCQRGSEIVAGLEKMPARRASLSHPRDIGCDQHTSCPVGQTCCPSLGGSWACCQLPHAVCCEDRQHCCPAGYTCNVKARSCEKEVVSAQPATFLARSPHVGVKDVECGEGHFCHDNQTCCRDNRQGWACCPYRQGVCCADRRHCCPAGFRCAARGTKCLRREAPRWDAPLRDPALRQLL

Question: GpL-PGRN (from UniProt P28799 21-593) was tested. Which binding (TNFR1-Fc [1]) did it give?
Answer: no binding (tested: up to 5,000–30,000 ng/ml)

Question: And the binding (TNFR2-Fc (Enbrel) [2])?
Answer: no binding (tested: up to 5,000–30,000 ng/ml)

Question: And the binding (TNFR1-Fc [3])?
Answer: no binding (tested: up to 5,000–30,000 ng/ml)

Question: And the binding (TNFR2-Fc (Enbrel) [4])?
Answer: no binding (tested: up to 5,000–30,000 ng/ml)

From article PMC5925078
